# Tests used:
# [1] = test system: HEL cells (human acute myelocytic leukemia cell lines); assay: cells; settings: read-out: Cell-Growth Inhibition Test: HEL Cells IC50 (nM)
# [2] = test system: NCI-H1417 cells (human small-cell lung cancer cell lines); assay: cells; settings: NCI-H1417, read-out: Cell-Growth Inhibition Test: NCI-H1417 Cells IC50 (nM)
SMILES,IC50 [1] [nM],IC50 [2] [nM]
"Cc1ccc(-c2cc(C(=O)N3CCC(N)CC3)nn2-c2ccc(C#N)cc2)cc1 [Comp. Ex. 7, 4-(3-(4-aminopiperidine-1-carbonyl)-5-(p-tolyl)-1H-pyrazol-1-yl)benzonitrile]",1040,1960
"N#Cc1ccc(-n2nc(C(=O)N3CCCC4(CNC4)C3)cc2-c2ccc(F)cc2)cc1 [Comparative Example 3, 4-(5-(4-fluorophenyl)-3-(2,6-diazaspiro[3.5]nonane-6-carbonyl)-1H-pyrazol-1-yl)benzonitrile]",> 3000,> 3000
"Cc1ccc(-c2ccc(C(=O)N3CC[C@H](N)C3)cc2-c2ccc(C(F)(F)F)cc2)cc1 [Comparative Example 5, (S)-(3-aminopyrrolidin-1-yl)(4-methyl-4″-(trifluoromethyl)-[1,1′:2′,1″-terphenyl]-4′-yl)methanone]",> 3000,> 3000
"Cc1ccc(-c2ccc(C(=O)N3CCC(c4cccnc4)C3)cc2-c2ccc(C#N)cc2)cc1 (centres unmarked) [Comparative Example 6, 4″-methyl-5′-(3-(pyridin-3-yl)pyrrolidine-1-carbonyl)-[1,1′:2′,1″-terphenyl]-4-carbonitrile]",> 3000,> 3000

# Reference: patent US10723742B2 (priority 2015, dated 2020)
